Data reported in paper PMC550661.
Results are given in words; binding and its absence hold for the method and conditions named. Some binding calls cover weakened binding; strength is not graded here.

Biological target: sea urchin major vault protein (MVP) (Strongylocentrotus purpuratus (endogenous in unfertilized eggs)) (UniProt Q5EAJ7)
Assay: cryo-EM structure; vaults isolated from unfertilized S. purpuratus eggs; single particle reconstruction from 409 particle images, D8 symmetry imposed, 33 Å by the 0.5 Fourier shell correlation criterion; both purified

B1: sea urchin major vault protein (MVP) (protein, UniProt Q5EAJ7 1-857)
chain: MASKRGSNQDESIFRIPPYYYIHVLDHNDNVTKVVVGPKTYIRQDHERVIFGPEKMITIPPRHYCIIENPVVRNDTDQVVYDNLGQVKLFHADQEIRLAREPFPLYPGEVLKQAVTALKVVQANAALRLRAILDFEDGTQKRVAGDEWLFEGPGTYIPRKEVVVDETIRATIIRPNQAIKLRARKETNDREGTARVTGEEWQVKKVGAYLPGAYEEVVDTVNAYVLTEKNALHLRATRTFVDMKGKTRKNGEEWLINMADTDAHIPDVYEEVVGVVDINTLTNRQYCVIVDPVGPDGKPQLGQKKLVKGEVSFFLQPGETLEQGIQSVFILGEDEGLILRAQESFKDANAAGAVRQPGDRWMIRGPCEYVPTVELEVVTRRKAIPLDENEGVYIRDTKTGKVRAVTGETYMLSQDEELWAKELSPAVEELLQSAKDPVAERSDRRGDRAAPRAREKTRVISFRVPHNAAVQIYDYKEKKARVVFGPELVMLGPDEQFTQLSLSGGKPKRPNVIKALCLLLGPDFCTDIITIETADHARLQLQLSYNWHFDVPDKTDVAASAKLFSVPDFIGDACKAIASRIRGAVAGVQFDDFHKNSAKIIRASVFGFDEKNKVRERFLFPQNSLVITSIDIQSVEPVDQRTRDALQKSVQLAIEITTNSQEATARHEAERLEQEARGRLERQKIMDEAEAEKSRKELLELQANSAAVESTGQAKAEAQSRAEAARIEGEAAVDQARLKAEAAKIESESELQRLTNAREAETKYVREQNALEVNKTKQMSDIETERFRNMVQSIGADTIKAMAMAGPEMQVKLLSSLGLKSTLITDGSTPINLFNTAQGLLGGFSAKRGIEHVEEED
- binding: binds
